These are yes or no findings as the source states them, for the method shown. Binding calls can cover weak binding; strength is not graded here. Sequences can lack the tags named with a protein.
What was measured:
[1] = biological target: T1, NRP1-b1b2 (273-586) protein (UniProt O14786 273-586); experiment: competitive binding ELISA on NRP1-b1b2
T1 construct: range 273-586; Prepared according to Appleton et al. 2007; Biotinylated (Sulfo-NHS-LC-biotin) for the yeast display FACS; unlabelled in ELISA and SPR; also called neuropilin-1 b1b2 protein; biotinylated NRP1-b1b2

The chains behind the UniProt entries cited, without tags or fusion partners. Where a name states a change or a piece, a line headed by the entry shows the natural chain unless it says otherwise.
UniProt O14786: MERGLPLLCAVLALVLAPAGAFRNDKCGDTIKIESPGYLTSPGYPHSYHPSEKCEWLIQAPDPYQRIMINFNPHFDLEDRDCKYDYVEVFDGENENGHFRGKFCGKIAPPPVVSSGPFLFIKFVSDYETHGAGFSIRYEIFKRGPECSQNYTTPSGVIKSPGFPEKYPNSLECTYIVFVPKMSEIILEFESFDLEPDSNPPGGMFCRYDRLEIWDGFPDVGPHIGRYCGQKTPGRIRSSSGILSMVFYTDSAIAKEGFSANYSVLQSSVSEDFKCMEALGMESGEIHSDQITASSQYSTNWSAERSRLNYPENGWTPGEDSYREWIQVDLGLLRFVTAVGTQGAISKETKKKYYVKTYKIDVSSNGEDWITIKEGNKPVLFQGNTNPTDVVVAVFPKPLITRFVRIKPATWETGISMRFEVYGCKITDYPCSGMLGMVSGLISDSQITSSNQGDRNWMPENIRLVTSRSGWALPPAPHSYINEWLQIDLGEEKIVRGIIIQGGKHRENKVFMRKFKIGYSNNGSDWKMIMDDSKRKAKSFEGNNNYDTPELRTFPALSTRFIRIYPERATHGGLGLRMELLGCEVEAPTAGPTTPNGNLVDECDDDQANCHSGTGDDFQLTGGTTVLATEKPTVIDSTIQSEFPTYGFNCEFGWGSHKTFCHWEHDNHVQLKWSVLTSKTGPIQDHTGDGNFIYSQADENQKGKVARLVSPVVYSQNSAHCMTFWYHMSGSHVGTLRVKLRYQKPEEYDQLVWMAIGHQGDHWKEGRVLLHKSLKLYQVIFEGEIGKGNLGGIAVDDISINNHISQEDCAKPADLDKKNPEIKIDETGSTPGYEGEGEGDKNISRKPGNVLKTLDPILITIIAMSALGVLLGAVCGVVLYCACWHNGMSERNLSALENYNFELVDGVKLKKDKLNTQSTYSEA

[2] = biological target: T1, NRP1-b1b2 (273-586) protein; experiment: ELISA, biotinylated analyte on immobilised NRP1-b1b2, absorbance at 405 nm [B]
[3] = biological target: T1, NRP1-b1b2 (273-586) protein; experiment: competitive ELISA on NRP1-b1b2; TPP11 peptide varied, blocked ligand VEGF165 [5 nM], relative binding (%) [B]
[4] = biological target: T1, NRP1-b1b2 (273-586) protein; experiment: competitive ELISA on NRP1-b1b2; TPP11 peptide varied, blocked ligand RPARPAR [10 µM], relative binding (%) [B]

- binding [1]: binds
- binding [2]: binds
- binding [3]: binds
- binding [4]: binds
B1: synthetic peptide TPP11 not fused to Fc (peptide)
peptide: HTPGNSKPTRTPRR
